Test results from patent US20230087078A1, “COMPOSITIONS AND METHODS FOR THE TREATMENT OF PANCREATIC CANCER” (Washington University, priority 2020, published 2023).
For at least one compound, name, drawing or mass did not settle the structure.

System: Pa01c cells
Experiment: Apoptosis (PARP cleavage, cleaved caspase-7, FACS) with FOLFIRINOX plus JNK or MEK inhibitor
Type: cell-based, human
Conditions: for apoptosis by FACS analysis: added to FOLFIRINOX; for effect on the apoptotic effect of FOLFIRINOX (PARP cleavage, cleaved caspase-7): given concurrently with FOLFIRINOX

Row | Structure (SMILES) | apoptosis by FACS analysis | effect on the apoptotic effect of FOLFIRINOX (PARP cleavage, cleaved caspase-7)
1 | Oc1c2ccccc2c2c3c(cccc13)N=N2 [SP600125] | did not appreciably augment apoptosis | reversed
2 | CC(=O)Nc1cccc(-n2c(=O)n(C3CC3)c(=O)c3c(Nc4ccc(I)cc4F)n(C)c(=O)c(C)c32)c1 [Trametinib] | did not appreciably augment apoptosis | modestly augmented
